The experiment in a line: qHTS Assay for Lipid Storage Modulators in Drosophila S3 Cells.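 For cell number change: cells counted by Cell Tracker Red CMTPX staining in the red channel.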 Particulars: BODIPY lipid droplet fluorescence, 18-24 h; for cell number change: measured here: cell count max response, cells fed with added oleic acid. In a few lines:
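Drosophila S3 cells got compounds at several concentrations plus oleic acid (400 uM solution). Laser-scanning cytometry with 488 nm excitation read lipid droplets at 500-530 nm and cells at 575-640 nm. Percent activity was relative to 20 uM Triacsin C.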

The mark [1] stands for this setting: measured here: lipid fluorescence (Fed channel) AC50, cells fed with added oleic acid.
[2] abbreviates: measured here: cell number channel AC50, cells fed with added oleic acid.

This is one part of the list. The main result of the screen is listed elsewhere. These columns were measured beside it and carry no call. Compounds called inactive in the main read-out are mostly missing here. Potencies come from curve fits of mixed quality, noted in brackets.

In the case of `Nc1nc(N)c(N=Nc2ccc(C(=O)O)cc2)c(N)n1`, the cell number change is 5%. For the same compound, under setting [1], the AC50 is 2.31 µM [rising, partial curve, poor fit].
For `Cc1ccc2oc(Nc3nc(-c4ccccc4)cc(=O)[nH]3)nc2c1`, the cell number change was -1.81%. In addition, the AC50 under setting [2] was 0.461 µM [rising, single point]. Besides, the AC50 under setting [1] was 18.4 µM [falling, partial curve].
For the compound `O=C(COC(=O)c1cccc(S(=O)(=O)N2CCOCC2)c1)c1ccccc1`, the cell number change is -27.6%. Moreover, the AC50 under setting [1] was 29.1 µM [falling, single point].
As to `CCCCOC(=O)n1c(=O)oc2ccccc21`, the cell number change is -24.5%. Under setting [1], the AC50 is 3.66 µM [falling, full curve].
Turning to `COc1cccc(/C=C/c2ccc3ccccc3n2)c1OC(C)=O`, the cell number change is 7.22%. Also, the AC50 under setting [1] was 2.31 µM [rising, full curve, poor fit].
For `COCCCn1c(O)c(/C=C2\N=C(C#N)C(=Nc3ccc(C)cc3)O2)sc1=S`, the AC50 is 3.26 µM [rising, partial curve] under setting [2] and 5.17 µM [falling, full curve] under setting [1].
For the compound `Cc1cc(C)c(OCCOCCN(C)C)c(Br)c1`, the cell number change came to 3.39%. In addition, the AC50 under setting [1] was 1.64 µM [rising, partial curve].
On to `O=C(CN1CCOCC1)Nc1ncc(Cc2cccc(Cl)c2)s1`, for which the cell number change is -5.73%. Further, the concentration at half-maximal activity (AC50) under setting [1] was 16.4 µM [falling, single point].
Take `O=C(O)c1sccc1OCc1ccccc1`: the cell number change is -43.2%. Also, the concentration at half-maximal activity (AC50) under setting [2] was 11.6 µM [falling, partial curve].
In the case of `CCCCc1nc2cc(C(=O)N3CCCC(COC)C3)ccc2o1` (stereo unspecified), the cell number change worked out at 31.7%. Further, the AC50 under setting [2] was 29.1 µM [rising, single point].
With `Cc1ccc(NC(=O)c2ccccc2N2C(=O)C3C4C=CC(C5CC45)C3C2=O)cc1C` (stereo unspecified), the cell number change was -49.5%. In addition, the AC50 under setting [2] was 7.08 µM [falling, full curve]. For the same compound, the concentration at half-maximal activity (AC50) under setting [1] was 7.08 µM [falling, partial curve].
As to `CCOC(=O)[C@H]1[C@H]2COc3ccc(Br)cc3[C@@H]2N2C(=O)c3ccc(F)cc3NC(=O)[C@@]12C`, under setting [1], the AC50 was 6.51 µM [falling, single point].
With `CCn1c(=O)n(CC)c2cc(N3CCCC3)c(NC(=O)c3cccc(OC)c3)cc21`, the cell number change was 4.2%.
Take `Cc1ccc(CNC(=O)CCn2cc(-c3ccc(F)cc3)nc2-c2ccncc2)cc1`: the cell number change was -32.5%. In addition, the AC50 under setting [1] was 25.9 µM [falling, partial curve, poor fit].
Consider `Cc1cc(C[n+]2cc(Br)ccc2N)c2ncccc2c1`, for which the cell number change stood at 7.2%. In addition, the AC50 under setting [1] was 8.2 µM [rising, partial curve].
As for `CCOC(=O)Cn1c(=O)oc2cc(S(=O)(=O)Nc3ccc(N(CC)CC)cc3C)ccc21`, the cell number change came to 0.395%. In addition, the concentration at half-maximal activity (AC50) under setting [1] was 0.731 µM [rising, single point].
`COC(=O)C1CCN(C(=O)CN(C)Cc2ccc(C(C)(C)C)cc2)CC1`: the cell number change was 14.1%.
With `O=C(O)COc1ccc2c3c(c(=O)oc2c1)CCCC3`, the cell number change was 4.14%. Further, the AC50 under setting [1] was 0.651 µM [falling, single point].
As to `Cc1nnc(SCc2nnc(-c3ccccc3Br)o2)n1-c1ccccc1`, the AC50 was 0.731 µM [rising, partial curve] under setting [2] and 0.651 µM [rising, partial curve] under setting [1].
As for `O=C(N1CCC(n2nc(-c3ccccc3)oc2=O)CC1)C1(c2ccc(Cl)cc2)CC1`, the cell number change was -16.8%. The AC50 under setting [1] was 5.17 µM [falling, full curve].
Take `CCCn1c(C)cc(C(=O)COC(=O)c2c(C)nn(-c3ccccc3)c2C)c1C`: the cell number change came out at 53.9%. Also, the AC50 under setting [2] is 8.2 µM [rising, partial curve].
Turning to `C=CCn1c(SCc2nc3ccccc3c(=O)[nH]2)nc2ccccc2c1=O`, the cell number change is -12.3%. Moreover, the AC50 under setting [2] is 1.3 µM [rising, full curve, poor fit].
`O=C(NCc1cn2ccsc2n1)c1cccs1`: the cell number change was -1.73%. For the same compound, under setting [1], the AC50 was 1.16 µM [rising, full curve].
As to `CN(C)Cc1c(O)ccc2c(=O)c(-c3ccccc3Cl)c(C(F)(F)F)oc12`, the cell number change was -16.5%. For the same compound, under setting [1], the half-maximal activity concentration (AC50) is 29.1 µM [rising, single point].
For `COc1ccc(S(=O)(=O)N2CCCC(C(=O)N3CCCC3)C2)cc1OC` (stereo unspecified), the cell number change stood at 47.8%. For the same compound, the AC50 under setting [2] was 13 µM [rising, partial curve, poor fit].
For `CC(C)OP(=O)(OC(C)C)C(NC(=O)c1ccccc1)C(N)=O` (stereo unspecified), the cell number change was -16.1%. Besides, the AC50 under setting [1] was 3.66 µM [falling, single point].
Consider `CCCc1nn2c(=O)cc(CSCC(=O)Nc3nnc(CC)s3)nc2s1`, for which the cell number change turned out to be 16.4%. Moreover, the half-maximal activity concentration (AC50) under setting [1] was 29.1 µM [rising, single point].
As to `CCCCOC(=O)C1=C(C)NC(=O)NC1c1ccc(N(C)C)cc1` (stereo unspecified), the cell number change is -13.2%. Also, the AC50 under setting [1] is 25.9 µM [rising, partial curve, poor fit].
Regarding `CCC(C)NC(=O)Nc1ccc2c(c1)N(C)C(=O)c1ccccc1S2` (stereo unspecified), the cell number change worked out at 5.19%. Under setting [2], the AC50 is 6.51 µM [falling, single point].
For the compound `Cc1cc(N2C(=O)C(O)=C(C(=O)c3cc4ccccc4o3)C2c2ccc(OC(C)C)cc2)no1` (stereo unspecified), the cell number change is 7.46%. Moreover, the AC50 under setting [1] is 29.1 µM [rising, partial curve, poor fit].
For `Cc1cccc(-n2c(O)c(C=Nc3ccc(O)cc3)c3ccccc3c2=O)n1`, the cell number change was -45.7%. In addition, under setting [2], the AC50 was 14.6 µM [falling, partial curve, poor fit]. For the same compound, the AC50 under setting [1] is 16.4 µM [falling, partial curve, poor fit].
Regarding `COc1ccccc1C1CCN(Cc2ccc(Cl)cc2Cl)CC1`, the cell number change was -54.6%. Moreover, the AC50 under setting [2] was 29.1 µM [falling, single point]. Further, the AC50 under setting [1] is 18.4 µM [falling, single point].
For the compound `COc1ccc(COc2cccc3ccc(C)nc23)cc1F`, the cell number change worked out at 11.3%.
Turning to `CC1CCN(c2ncnc3c2cnn3Cc2ccc(Cl)cc2)CC1`, the cell number change came to 2.16%. For the same compound, under setting [1], the AC50 is 14.6 µM [rising, single point].
With `O=C(CN1CCN(S(=O)(=O)c2ccc(F)cc2)CC1)Nc1ccnn1C1CCCC1`, the cell number change was -48.3%. Also, under setting [2], the half-maximal activity concentration (AC50) is 9.2 µM [falling, partial curve].
For `S=C(NCc1ccncc1)Nc1ccc(Br)cc1Cl`, the cell number change is -15.9%. Moreover, the AC50 under setting [1] was 2.91 µM [rising, single point].
Turning to `CCC(C(=O)NCCc1ccc(C)cc1)n1nc(C)c2c(C)n(-c3ccccc3)nc2c1=O` (stereo unspecified), the cell number change was -18.9%. The AC50 under setting [1] was 0.58 µM [falling, single point].
With `CCOC(=O)N1CCN(Cc2nc(Cc3cccc(F)c3)no2)CC1`, the cell number change was 21.3%. Moreover, under setting [1], the AC50 was 0.082 µM [rising, full curve, poor fit].

For the origin of these results see PubChem BioAssay AID2685 (National Center for Advancing Translational Sciences (NCATS), 2010).
